Test results taken from article PMC7732990.
No constants are given. Whether binding was seen depends on the method and setting. Binding seen in cells or lysates may run through a third protein. Here binding means that the protein was enriched with, or labelled near, the bait; the list need not be complete. Where a sequence is shown, tags or fusion partners need not be part of it.

Amino acid sequences for entries named in this document (tags omitted).
UniProt Q9Y265: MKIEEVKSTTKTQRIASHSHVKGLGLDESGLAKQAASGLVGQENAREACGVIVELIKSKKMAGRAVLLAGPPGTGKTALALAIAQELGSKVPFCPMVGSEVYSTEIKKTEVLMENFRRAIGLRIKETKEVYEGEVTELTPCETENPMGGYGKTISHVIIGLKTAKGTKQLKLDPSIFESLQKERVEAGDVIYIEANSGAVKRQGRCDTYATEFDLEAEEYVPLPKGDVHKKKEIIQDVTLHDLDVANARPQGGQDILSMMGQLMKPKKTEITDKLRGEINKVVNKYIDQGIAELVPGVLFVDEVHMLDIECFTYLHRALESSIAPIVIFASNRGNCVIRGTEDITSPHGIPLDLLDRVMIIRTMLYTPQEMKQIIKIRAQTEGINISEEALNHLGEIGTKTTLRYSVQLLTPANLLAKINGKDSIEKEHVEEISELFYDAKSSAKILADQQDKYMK
UniProt O00629: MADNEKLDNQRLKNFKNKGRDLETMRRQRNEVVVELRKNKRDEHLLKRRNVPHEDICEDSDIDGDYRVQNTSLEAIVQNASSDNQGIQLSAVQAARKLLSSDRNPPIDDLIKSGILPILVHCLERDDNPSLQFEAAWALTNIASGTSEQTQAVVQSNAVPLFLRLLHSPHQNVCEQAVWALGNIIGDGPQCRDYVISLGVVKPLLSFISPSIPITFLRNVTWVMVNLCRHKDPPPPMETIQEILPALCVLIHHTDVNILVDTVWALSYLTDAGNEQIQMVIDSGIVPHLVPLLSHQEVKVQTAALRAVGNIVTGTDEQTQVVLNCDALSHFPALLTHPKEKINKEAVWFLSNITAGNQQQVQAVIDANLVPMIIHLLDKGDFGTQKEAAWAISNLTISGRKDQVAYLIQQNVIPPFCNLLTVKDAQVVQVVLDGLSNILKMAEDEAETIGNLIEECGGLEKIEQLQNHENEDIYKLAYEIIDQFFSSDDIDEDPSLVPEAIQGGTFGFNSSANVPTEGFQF
UniProt O00505: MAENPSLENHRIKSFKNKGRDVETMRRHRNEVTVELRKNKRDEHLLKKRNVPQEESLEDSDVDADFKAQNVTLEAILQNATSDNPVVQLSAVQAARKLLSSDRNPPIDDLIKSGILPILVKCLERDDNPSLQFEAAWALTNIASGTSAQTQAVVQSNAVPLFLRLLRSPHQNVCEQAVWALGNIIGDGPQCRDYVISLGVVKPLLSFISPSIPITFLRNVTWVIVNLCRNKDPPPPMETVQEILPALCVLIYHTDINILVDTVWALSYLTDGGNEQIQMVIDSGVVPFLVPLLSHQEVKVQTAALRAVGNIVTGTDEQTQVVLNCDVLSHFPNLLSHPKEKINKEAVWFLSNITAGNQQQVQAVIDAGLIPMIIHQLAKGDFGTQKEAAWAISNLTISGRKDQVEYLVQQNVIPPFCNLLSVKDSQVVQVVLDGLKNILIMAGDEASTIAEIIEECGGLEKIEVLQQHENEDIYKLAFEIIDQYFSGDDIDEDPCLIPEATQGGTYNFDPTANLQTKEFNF
UniProt P17980: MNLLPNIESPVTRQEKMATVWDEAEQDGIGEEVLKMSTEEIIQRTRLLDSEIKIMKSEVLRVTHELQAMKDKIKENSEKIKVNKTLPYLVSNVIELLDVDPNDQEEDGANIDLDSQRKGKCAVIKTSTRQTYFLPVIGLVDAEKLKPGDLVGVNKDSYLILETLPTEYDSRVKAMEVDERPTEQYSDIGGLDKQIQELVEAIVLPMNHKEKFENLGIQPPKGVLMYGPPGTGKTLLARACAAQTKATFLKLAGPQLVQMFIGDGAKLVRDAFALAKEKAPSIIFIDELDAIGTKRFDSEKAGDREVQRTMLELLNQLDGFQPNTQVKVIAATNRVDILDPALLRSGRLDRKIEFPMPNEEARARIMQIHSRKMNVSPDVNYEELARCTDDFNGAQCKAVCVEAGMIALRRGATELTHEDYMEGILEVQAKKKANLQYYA

T1: ZFAND3 fused with a biotin ligase (ZFAND3-BirA) (UniProt Q9H8U3)
T1 sequence: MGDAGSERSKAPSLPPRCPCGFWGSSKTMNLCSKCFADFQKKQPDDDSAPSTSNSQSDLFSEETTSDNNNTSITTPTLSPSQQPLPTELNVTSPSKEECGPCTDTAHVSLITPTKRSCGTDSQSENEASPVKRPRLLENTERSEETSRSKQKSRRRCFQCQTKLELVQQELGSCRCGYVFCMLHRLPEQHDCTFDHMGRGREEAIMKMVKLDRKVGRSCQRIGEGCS

T2: FLAG-tagged ZFAND3 (UniProt Q9H8U3)
T2 sequence: T1 sequence

B1: PPIL4 (protein, UniProt Q8WUA2 1-492)
chain: MAVLLETTLGDVVIDLYTEERPRACLNFLKLCKIKYYNYCLIHNVQRDFIIQTGDPTGTGRGGESIFGQLYGDQASFFEAEKVPRIKHKKKGTVSMVNNGSDQHGSQFLITTGENLDYLDGVHTVFGEVTEGMDIIKKINETFVDKDFVPYQDIRINHTVILDDPFDDPPDLLIPDRSPEPTREQLDSGRIGADEEIDDFKGRSAEEVEEIKAEKEAKTQAILLEMVGDLPDADIKPPENVLFVCKLNPVTTDEDLEIIFSRFGPIRSCEVIRDWKTGESLCYAFIEFEKEEDCEKAFFKMDNVLIDDRRIHVDFSQSVAKVKWKGKGGKYTKSDFKEYEKEQDKPPNLVLKDKVKPKQDTKYDLILDEQAEDSKSSHSHTSKKHKKKTHHCSEEKEDEDYMPIKNTNQDIYREMGFGHYEEEESCWEKQKSEKRDRTQNRSRSRSRERDGHYSNSHKSKYQTDLYERERSKKRDRSRSPKKSKDKEKSKYR
B2: Treacle (protein, UniProt Q13428 1-1488)
chain: MAEARKRRELLPLIYHHLLRAGYVRAAREVKEQSGQKCFLAQPVTLLDIYTHWQQTSELGRKRKAEEDAALQAKKTRVSDPISTSESSEEEEEAEAETAKATPRLASTNSSVLGADLPSSMKEKAKAETEKAGKTGNSMPHPATGKTVANLLSGKSPRKSAEPSANTTLVSETEEEGSVPAFGAAAKPGMVSAGQADSSSEDTSSSSDETDVEGKPSVKPAQVKASSVSTKESPARKAAPAPGKVGDVTPQVKGGALPPAKRAKKPEEESESSEEGSESEEEAPAGTRSQVKASEKILQVRAASAPAKGTPGKGATPAPPGKAGAVASQTKAGKPEEDSESSSEESSDSEEETPAAKALLQAKASGKTSQVGAASAPAKESPRKGAAPAPPGKTGPAVAKAQAGKREEDSQSSSEESDSEEEAPAQAKPSGKAPQVRAASAPAKESPRKGAAPAPPRKTGPAAAQVQVGKQEEDSRSSSEESDSDREALAAMNAAQVKPLGKSPQVKPASTMGMGPLGKGAGPVPPGKVGPATPSAQVGKWEEDSESSSEESSDSSDGEVPTAVAPAQEKSLGNILQAKPTSSPAKGPPQKAGPVAVQVKAEKPMDNSESSEESSDSADSEEAPAAMTAAQAKPALKIPQTKACPKKTNTTASAKVAPVRVGTQAPRKAGTATSPAGSSPAVAGGTQRPAEDSSSSEESDSEEEKTGLAVTVGQAKSVGKGLQVKAASVPVKGSLGQGTAPVLPGKTGPTVTQVKAEKQEDSESSEEESDSEEAAASPAQVKTSVKKTQAKANPAAARAPSAKGTISAPGKVVTAAAQAKQRSPSKVKPPVRNPQNSTVLARGPASVPSVGKAVATAAQAQTGPEEDSGSSEEESDSEEEAETLAQVKPSGKTHQIRAALAPAKESPRKGAAPTPPGKTGPSAAQAGKQDDSGSSSEESDSDGEAPAAVTSAQVIKPPLIFVDPNRSPAGPAATPAQAQAASTPRKARASESTARSSSSESEDEDVIPATQCLTPGIRTNVVTMPTAHPRIAPKASMAGASSSKESSRISDGKKQEGPATQVSKKNPASLPLTQAALKVLAQKASEAQPPVARTQPSSGVDSAVGTLPATSPQSTSVQAKGTNKLRKPKLPEVQQATKAPESSDDSEDSSDSSSGSEEDGEGPQGAKSAHTLGPTPSRTETLVEETAAESSEDDVVAPSQSLLSGYMTPGLTPANSQASKATPKLDSSPSVSSTLAAKDDPDGKQEAKPQQAAGMLSPKTGGKEAASGTTPQKSRKPKKGAGNPQASTLALQSNITQCLLGQPWPLNEAQVQASVVKVLTELLEQERKKVVDTTKESSRKGWESRKRKLSGDQPAARTPRSKKKKKLGAGEGGEASVSPEKTSTTSKGKAKRDKASGDVKEKKGKGSLGSQGAKDEPEEELQKGMGTVEGGDQSNPKSKKEKKKSDKRKKDKEKKEKKKKAKKASTKDSESPSQKKKKKKKKTAEQTV
B3: SF1 (protein, UniProt Q15637 1-639)
chain: MATGANATPLDFPSKKRKRSRWNQDTMEQKTVIPGMPTVIPPGLTREQERAYIVQLQIEDLTRKLRTGDLGIPPNPEDRSPSPEPIYNSEGKRLNTREFRTRKKLEEERHNLITEMVALNPDFKPPADYKPPATRVSDKVMIPQDEYPEINFVGLLIGPRGNTLKNIEKECNAKIMIRGKGSVKEGKVGRKDGQMLPGEDEPLHALVTANTMENVKKAVEQIRNILKQGIETPEDQNDLRKMQLRELARLNGTLREDDNRILRPWQSSETRSITNTTVCTKCGGAGHIASDCKFQRPGDPQSAQDKARMDKEYLSLMAELGEAPVPASVGSTSGPATTPLASAPRPAAPANNPPPPSLMSTTQSRPPWMNSGPSESRPYHGMHGGGPGGPGGGPHSFPHPLPSLTGGHGGHPMQHNPNGPPPPWMQPPPPPMNQGPHPPGHHGPPPMDQYLGSTPVGSGVYRLHQGKGMMPPPPMGMMPPPPPPPSGQPPPPPSGPLPPWQQQQQQPPPPPPPSSSMASSTPLPWQQNTTTTTTSAGTGSIPPWQQQQAAAAASPGAPQMQGNPTMVPLPPGVQPPLPPGAPPPPPPPPPGSAGMMYAPPPPPPPPMDPSNFVTMMGMGVAGMPPFGMPPAPPPPPPQN

biological target: T1, ZFAND3 fused with a biotin ligase (ZFAND3-BirA); assay: proximity labelling; BioID: myc-BioID-ZFAND3 stably in NCH644 GSCs, 100 µM D-biotin 48 h, streptavidin magnetic beads, on-bead digestion, LC-MS/MS; nontransduced cells as control

binding	Molecule
binds	Pontin (from UniProt Q9Y265 1-456)
binds	KPNA4 (from UniProt O00629 1-521)
binds	KPNA3 (from UniProt O00505 1-521)
binds	PSMC3 (from UniProt P17980 1-439)

biological target: T1, ZFAND3 fused with a biotin ligase (ZFAND3-BirA); assay: as above; remark: another data set of the same source

binding	Molecule
binds	B1
binds	B2
binds	B3

biological target: T2, FLAG-tagged ZFAND3; assay: affinity purification with mass spectrometry; FLAG M2 antibody on Dynabeads M-270 Epoxy, whole cell lysate of NI GSCs overexpressing ZFAND3-FLAG, IP buffer with 100 mM NaCl, 4 °C 30 min, on-bead digestion, LC-MS/MS

binding	Molecule
binds	Pontin (from UniProt Q9Y265 1-456)
binds	KPNA4 (from UniProt O00629 1-521)
binds	KPNA3 (from UniProt O00505 1-521)
binds	PSMC3 (from UniProt P17980 1-439)
binds	B1
binds	B2
binds	B3
